Laboratory results: patent US20100322930A1
No constants are given. Whether binding was seen depends on the method and setting. Binding calls can cover weak binding; strength is not graded here. Tags and fused reporters may be left off the sequences shown.

Protein sequences, listed by entry. Tags and fused reporters are not part of them. Lines headed by an entry give the natural chain unless they say otherwise; changes in a name come on top.
UniProt P17948: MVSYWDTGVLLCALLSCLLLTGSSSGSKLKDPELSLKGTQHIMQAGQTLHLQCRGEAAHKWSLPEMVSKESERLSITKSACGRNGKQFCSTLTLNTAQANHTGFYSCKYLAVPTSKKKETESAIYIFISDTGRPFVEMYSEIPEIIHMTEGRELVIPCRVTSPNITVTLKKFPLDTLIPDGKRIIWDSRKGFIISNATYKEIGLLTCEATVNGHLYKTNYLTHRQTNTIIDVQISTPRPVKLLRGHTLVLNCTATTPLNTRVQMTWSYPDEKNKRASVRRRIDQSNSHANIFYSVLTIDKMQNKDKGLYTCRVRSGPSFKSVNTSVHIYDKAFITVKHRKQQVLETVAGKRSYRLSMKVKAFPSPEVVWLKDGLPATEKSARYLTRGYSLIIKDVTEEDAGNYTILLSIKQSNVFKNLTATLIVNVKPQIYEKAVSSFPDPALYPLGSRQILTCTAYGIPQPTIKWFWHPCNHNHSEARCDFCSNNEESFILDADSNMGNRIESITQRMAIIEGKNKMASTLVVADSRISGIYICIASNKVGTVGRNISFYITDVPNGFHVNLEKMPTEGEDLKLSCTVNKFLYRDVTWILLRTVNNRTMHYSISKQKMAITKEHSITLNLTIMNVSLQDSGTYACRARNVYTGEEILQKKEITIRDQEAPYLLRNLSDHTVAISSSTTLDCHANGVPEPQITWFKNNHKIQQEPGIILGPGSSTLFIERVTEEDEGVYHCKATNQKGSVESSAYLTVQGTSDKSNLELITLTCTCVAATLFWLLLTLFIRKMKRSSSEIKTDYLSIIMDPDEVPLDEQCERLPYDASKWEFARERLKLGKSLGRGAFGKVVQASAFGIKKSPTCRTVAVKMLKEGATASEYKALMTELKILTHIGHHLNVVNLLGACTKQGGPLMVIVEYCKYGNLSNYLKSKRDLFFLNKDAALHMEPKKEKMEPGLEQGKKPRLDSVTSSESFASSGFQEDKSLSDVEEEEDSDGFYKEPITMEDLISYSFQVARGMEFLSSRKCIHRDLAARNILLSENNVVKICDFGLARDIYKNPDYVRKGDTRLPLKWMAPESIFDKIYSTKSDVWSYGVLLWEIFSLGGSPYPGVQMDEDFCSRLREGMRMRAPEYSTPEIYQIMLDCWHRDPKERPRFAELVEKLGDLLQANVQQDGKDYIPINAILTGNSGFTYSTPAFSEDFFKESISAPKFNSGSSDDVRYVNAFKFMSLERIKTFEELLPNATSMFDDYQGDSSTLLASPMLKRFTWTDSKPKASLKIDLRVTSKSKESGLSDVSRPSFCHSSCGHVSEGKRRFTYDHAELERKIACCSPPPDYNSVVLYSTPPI

Target: hVEGFR (human) (UniProt P17948)
Experiment: ELISA

B1: VEGFR-binding Fn3-RSA (CD33 signal sequence-VEGFR-binding Fn3-RSA-His tag, pRS5a) (designed binder)
chain: GEVVAATPTSLLISWRHPHFPTRYYRITYGETGGNSPVQEFTVPLQPPTATISGLKPGVDYTITVYAVTDGRNGRLLSIPISINYRTEAHKSEIAHRFKDLGEQHFKGLVLIAFSQYLQKCPYEEHIKLVQEVTDFAKTCVADENAENCDKSIHTLFGDKLCAIPKLRDNYGELADCCAKQEPERNECFLQHKDDNPNLPPFQRPEAEAMCTSFQENPTSFLGHYLHEVARRHPYFYAPELLYYAEKYNEVLTQCCTESDKAACLTPKLDAVKEKALVAAVRQRMKCSSMQRFGERAFKAWAVARMSQRFPNAEFAEITKLATDVTKINKECCHGDLLECADDRAELAKYMCENQATISSKLQACCDKPVLQKSQCLAEIEHDNIPADLPSIAADFVEDKEVCKNYAEAKDVFLGTFLYEYSRRHPDYSVSLLLRLAKKYEATLEKCCAEGDPPACYGTVLAEFQPLVEEPKNLVKTNCELYEKLGEYGFQNAVLVRYTQKAPQVSTPTLVEAARNLGRVGTKCCTLPEAQRLPCVEDYLSAILNRLCVLHEKTPVSEKVTKCCSGSLVERRPCFSALTVDETYVPKEFKAETFTFHSDICTLPDKEKQIKKQTALAELVKHKPKATEDQLKTVMGDFAQFVDKCCKAADKDNCFATEGPNLVARSKEALAHHHHHH
  binding: binds
